Among the data in the supplement of paper PMC5949888 are growth estimate values, retold here.

Most values lie at the floor of the assay. Slopes are relative: functional sequences can read slightly below zero.

For this data set, the system named is Saccharomyces cerevisiae PS128 hsf1 delta, HSF1(1-493) fusion. The experiment in a line: growth estimate (transactivation domain function in HSF1 fusion, heat-shock survival) (a.u. (slope of normalised read count over time)); higher = stronger growth at 37°C, i.e. more transactivation activity. The following applies: library: random library.
Consider ISRRVSVIMSHRTGRFDACP, for which the growth estimate is below -0.25. The same measure for FGFRVKWKQTWISSGEGNEP: below -0.25; for ADELRHAGRRSFEL: below -0.25; for FDLVWTPGALQIRKIFRFAN: below -0.25. The same measure for RDQKVLH: below -0.25; for WIWIDAN: below -0.25; for YPQSNLEKGVVISSSLTKLP: below -0.25.

As to RRRSGVARRIARSTGWVSVL, the growth estimate was below -0.25. Regarding EQGCIAVYSNRRSYFEATPY, the growth estimate was below -0.25. Under FVAIGHSNGL stands below -0.25; under CSSVSMV, below -0.25; under WRSVVRGVR, below -0.25. The same measure for LTGTWHIKACVGHDGLVGGT: below -0.25; for SLRF: below -0.25.

SVQNVVPFQIVGY: the growth estimate was -0.25. Under GALPCVPTLKPGRLYWAP stands below -0.25; under LRGNFMEFTAIVLSKVVRRA, below -0.25.

Consider TIK, for which the growth estimate was below -0.25. Under PIWTWFFGR stands below -0.25; under PALQWMCYRETTSTQTCWML, below -0.25.

Take DHVAQGYVSACFN: the growth estimate is below -0.25. Under GLAGYLGSGAVGRTSLLSPD stands below -0.25. The same measure for LCQGMGKPGTA: below -0.25. The same measure for IRWTIGGTNRANSRGCAQLL: below -0.25; for CFCNERIVHG: below -0.25. As to RSTG, the growth estimate is -0.239. The same measure for QTEQDIWPLYRQCSLTVLLA: below -0.25; for RGTRNWGRDSVT: below -0.25; for RCT: below -0.25. Under SKRCEAAGLGKMVG stands below -0.25; under LTSANSHGNLRTVEGLSYNK, below -0.25; under GGCACNAPRIQCNVEIHLLM, below -0.25. Under PTIWGGVQSRFLYLSDSRRQ stands below -0.25; under VFVGIDTPFPMFGFYGPGLQ, 0.0033. In the case of KMLG, the growth estimate is below -0.25. The same measure for GIHQPSGRGIDP: below -0.25; for YGTGDLMTCRRSL: below -0.25; for ASLEIRPDGSLGPQRQPKCA: -0.233. Under SQLNAYHYVFASHPVPMCTA stands below -0.25. Consider GPWR, for which the growth estimate was below -0.25. In the case of SAVRLIF, the growth estimate is below -0.25. The same measure for NPLAHGELDI: below -0.25; for HAVWLSIDPRSWGASLK: below -0.25; for ERYTSMVECARKTRSSSRTK: below -0.25. Take VRPGMKS: the growth estimate is below -0.25. The same measure for RGFSCVVCCGWIARLSVILP: below -0.25; for CEGVMCSFGAEDTTNIDWGQ: -0.123; for SQLTICQMERALPRDGARPD: below -0.25.

In the case of RVSTFIGVMATYGVNRTLRA, the growth estimate was below -0.25. The same measure for RTCGWVGVPTSDTALNMAFR: below -0.25; for QFRKRTQAHGGRVGGPRVSD: below -0.25.

In the case of GVVKGKENKCMLGLQTARQH, the growth estimate is below -0.25. Under PPESEFCQRRVSRGGNCVLT stands -0.0016; under ISIEAGARDDCPLCEWAGTE, 32.4. For the substance VWGDRDGYWWDVL, the growth estimate is 0.146.

With NLSRHGKITDLHSTYPFCCE, the growth estimate is 0.156. The same measure for ALDANRLIKPELECSSLG: below -0.25; for RAVGNRGRDVPTTALDLTTS: below -0.25; for CCSNAIMMPTSRPPS: below -0.25. As for SKPVVAS, the growth estimate was below -0.25. The same measure for TYCLRQMPVFSTDSGSASGC: below -0.25. Under KGFYAFSGLPAPGRNLSHPA stands -0.243; under GRVWRIKKARSGGGGVITVY, below -0.25; under KYAAVQRRE, below -0.25. The same measure for RNQEPLPQGATSLSISLTI: -0.227. On to IDGVGDAWLCIDAGATLPFG, for which the growth estimate was below -0.25. The same measure for AIRPIGGVKPYRYQSTSMGS: below -0.25; for LCARNDRLAPRHTVTPYAVR: below -0.25; for QNGPSFG: below -0.25. SQSPISEISFL: the growth estimate is below -0.25. The same measure for LERYVLGEDKCIPEPDYV: below -0.25; for EGDLRQWSKCPEWDDQPVGG: below -0.25; for ATGTRA: below -0.25. The same measure for FRLLTTACPTEITGRYPGRT: below -0.25; for TFTDFCIR: below -0.25; for HGLRSIDHIEPQRQLLCWSS: below -0.25. Under YSSSALLYVRHPTASEYLP stands below -0.25. In the case of VGSGVRWDLVLVRSDSICHW, the growth estimate was below -0.25. Under ESVQTA stands below -0.25. The same measure for DDLRRAEHSAAQRLVYLVQS: below -0.25; for GKH: -0.217. For CIVLAARLPLSHFLSDPRIA, the growth estimate was below -0.25. Turning to SVVTSREIVIYRSQGRT, the growth estimate is below -0.25. Under RSDLLSCRCIMWGL stands below -0.25. The same measure for LGDAELMLTNVVPHSYYFTT: below -0.25. Under IEFSAG stands below -0.25; under NNGVDGGDYADGYGRGVTGS, below -0.25; under DEASYVRDVSNHCRHGFWHD, below -0.25. Regarding ALLPGAIILVPDTVKLLCLC, the growth estimate is below -0.25. In the case of QTRGE, the growth estimate is below -0.25. The same measure for HLSLKPMRFLFI: below -0.25; for RFTCRTILSVWRG: below -0.25. Under AKSDQIGREYIGLYTTGARA stands below -0.25; under CCYGARDI, below -0.25.

On to DVGLPGMKR, for which the growth estimate is below -0.25.

On to WKTWCCLRQRKSV, for which the growth estimate was below -0.25.

Take LNYRPARTYWSLSETGVSRV: the growth estimate was below -0.25. For LYESACV, the growth estimate is below -0.25.

On to RMRGFIVILVYGRGLDRILQ, for which the growth estimate is below -0.25. Under IWEGSLSSW stands below -0.25. Turning to TSDELCRRNGKCFARLSAYV, the growth estimate is below -0.25. The same measure for YFRLKVGWIDVER: below -0.25. Under TRSG stands below -0.25; under KLLRQGVKAAGGC, below -0.25. For LVTLSYVSKSFVYHQRSCHA, the growth estimate is below -0.25. Turning to PQNFATMC, the growth estimate was below -0.25. The same measure for SYGGRVECAYASAREDEASP: below -0.25; for GGLKYGRCVSSSYTVLPGMS: below -0.25. In the case of RCKEKRESCRSGT, the growth estimate is below -0.25. Under NCFEYH stands below -0.25; under HRGSRSLWESDT, below -0.25. As to LRVEVACGMMSRIASVVRGL, the growth estimate is below -0.25. Under VSVTATRLAHASRY stands below -0.25. SCCRGLSGFC: the growth estimate is below -0.25.
